Data reported in patent US20170101442A1.
No constants are given. Whether binding was seen depends on the method and setting. Some entries that bind do so weakly or less than the wild type.

Amino acid sequences for entries named in this document (tags omitted). A change or cut given only in a name is not applied to a line headed by its entry.
UniProt P11717: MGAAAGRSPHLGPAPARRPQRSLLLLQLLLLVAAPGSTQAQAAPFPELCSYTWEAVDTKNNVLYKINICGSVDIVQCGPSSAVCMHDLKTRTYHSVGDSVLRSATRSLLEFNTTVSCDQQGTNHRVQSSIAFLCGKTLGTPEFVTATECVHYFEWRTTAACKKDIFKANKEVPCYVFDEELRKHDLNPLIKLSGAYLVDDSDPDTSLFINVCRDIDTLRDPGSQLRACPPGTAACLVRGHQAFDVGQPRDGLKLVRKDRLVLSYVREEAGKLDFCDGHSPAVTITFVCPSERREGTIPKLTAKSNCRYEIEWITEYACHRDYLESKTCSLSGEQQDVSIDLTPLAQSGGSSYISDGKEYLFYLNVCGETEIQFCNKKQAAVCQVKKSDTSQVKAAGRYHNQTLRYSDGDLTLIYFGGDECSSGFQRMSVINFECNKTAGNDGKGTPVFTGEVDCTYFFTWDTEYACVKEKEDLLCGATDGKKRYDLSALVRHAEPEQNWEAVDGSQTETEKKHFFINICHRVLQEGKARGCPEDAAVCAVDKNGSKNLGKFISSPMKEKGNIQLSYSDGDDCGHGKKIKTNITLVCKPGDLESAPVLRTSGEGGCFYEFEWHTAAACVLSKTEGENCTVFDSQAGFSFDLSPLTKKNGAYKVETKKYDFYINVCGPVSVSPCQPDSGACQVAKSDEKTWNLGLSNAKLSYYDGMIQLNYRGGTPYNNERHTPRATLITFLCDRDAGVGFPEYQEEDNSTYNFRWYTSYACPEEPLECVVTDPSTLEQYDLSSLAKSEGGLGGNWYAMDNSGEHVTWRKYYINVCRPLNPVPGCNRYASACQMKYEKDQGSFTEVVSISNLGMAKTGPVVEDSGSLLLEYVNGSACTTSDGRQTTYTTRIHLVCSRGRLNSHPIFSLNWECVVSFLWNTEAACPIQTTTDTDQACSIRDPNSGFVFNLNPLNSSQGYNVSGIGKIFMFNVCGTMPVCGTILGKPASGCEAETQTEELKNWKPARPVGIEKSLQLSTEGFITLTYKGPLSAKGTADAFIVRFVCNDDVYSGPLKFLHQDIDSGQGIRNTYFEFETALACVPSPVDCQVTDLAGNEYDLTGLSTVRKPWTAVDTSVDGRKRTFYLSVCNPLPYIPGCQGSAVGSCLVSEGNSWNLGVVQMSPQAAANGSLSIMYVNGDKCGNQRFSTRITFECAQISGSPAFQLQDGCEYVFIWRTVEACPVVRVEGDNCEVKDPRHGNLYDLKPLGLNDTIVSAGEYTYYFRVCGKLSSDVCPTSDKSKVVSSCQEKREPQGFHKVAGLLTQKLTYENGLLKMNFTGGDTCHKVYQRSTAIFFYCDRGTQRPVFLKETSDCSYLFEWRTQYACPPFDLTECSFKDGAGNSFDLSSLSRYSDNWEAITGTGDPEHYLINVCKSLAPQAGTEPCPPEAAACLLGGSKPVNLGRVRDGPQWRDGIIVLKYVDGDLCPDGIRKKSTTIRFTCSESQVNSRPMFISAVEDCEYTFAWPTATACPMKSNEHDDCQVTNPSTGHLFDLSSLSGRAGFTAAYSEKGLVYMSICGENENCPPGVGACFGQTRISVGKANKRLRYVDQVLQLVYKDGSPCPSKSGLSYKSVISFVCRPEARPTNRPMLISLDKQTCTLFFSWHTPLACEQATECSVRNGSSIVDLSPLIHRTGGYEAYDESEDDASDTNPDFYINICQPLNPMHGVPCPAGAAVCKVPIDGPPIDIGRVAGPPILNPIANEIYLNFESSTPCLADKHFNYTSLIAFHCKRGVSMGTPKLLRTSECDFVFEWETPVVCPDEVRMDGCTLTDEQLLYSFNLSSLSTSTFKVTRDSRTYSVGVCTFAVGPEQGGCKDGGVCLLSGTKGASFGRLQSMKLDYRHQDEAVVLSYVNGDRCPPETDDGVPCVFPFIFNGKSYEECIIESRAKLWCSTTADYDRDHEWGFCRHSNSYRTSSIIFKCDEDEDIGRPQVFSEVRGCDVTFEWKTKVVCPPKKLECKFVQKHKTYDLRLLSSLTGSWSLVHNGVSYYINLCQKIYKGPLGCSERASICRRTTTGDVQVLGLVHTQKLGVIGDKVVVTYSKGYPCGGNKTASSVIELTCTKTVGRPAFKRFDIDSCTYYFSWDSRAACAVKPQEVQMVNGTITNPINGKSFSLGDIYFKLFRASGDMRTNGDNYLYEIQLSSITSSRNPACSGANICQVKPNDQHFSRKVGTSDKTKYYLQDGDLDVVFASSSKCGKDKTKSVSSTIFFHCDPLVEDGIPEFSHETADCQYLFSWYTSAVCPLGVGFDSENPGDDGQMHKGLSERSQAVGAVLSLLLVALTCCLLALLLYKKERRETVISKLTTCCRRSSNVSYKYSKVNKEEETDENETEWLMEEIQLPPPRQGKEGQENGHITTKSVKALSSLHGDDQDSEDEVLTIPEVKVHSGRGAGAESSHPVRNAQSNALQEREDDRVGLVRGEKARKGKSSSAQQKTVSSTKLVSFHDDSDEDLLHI

biological target: recombinant human IGF2R extracellular domain protein (human) (UniProt P11717); assay: phage ELISA on recombinant human IGF2R protein

Binder | binding
GLHTSATNLYLH [SEQ ID NO 2] | binds
VHWDFRQWWQPS [Phage No. 431] | binds
GFPTRFEALSSN [SEQ ID NO 1] | binds
SGVYKVAYDWQH [SEQ ID NO 10] | binds
GLHTSALSDLH [SEQ ID NO 8] | binds
RRVDKVQYDRQH [SEQ ID NO 7] | binds
KASGSPSGFWPS [SEQ ID NO 5] | binds
SGVYKVAYDGQH [SEQ ID NO 4] | binds
HSFKWLDSPRLR [SEQ ID NO 3] | binds
HTSSLWHLFRST [SEQ ID NO 9] | binds
